Results: doi:10.1101/2020.08.10.242008
These are yes or no findings as the source states them, for the method shown. Some entries that bind do so weakly or less than the wild type.

Biological target: T1, Full-length wild-type rat TRPV2 (transient receptor potential vanilloid 2) (rat), Q9WUD2
T1 chain: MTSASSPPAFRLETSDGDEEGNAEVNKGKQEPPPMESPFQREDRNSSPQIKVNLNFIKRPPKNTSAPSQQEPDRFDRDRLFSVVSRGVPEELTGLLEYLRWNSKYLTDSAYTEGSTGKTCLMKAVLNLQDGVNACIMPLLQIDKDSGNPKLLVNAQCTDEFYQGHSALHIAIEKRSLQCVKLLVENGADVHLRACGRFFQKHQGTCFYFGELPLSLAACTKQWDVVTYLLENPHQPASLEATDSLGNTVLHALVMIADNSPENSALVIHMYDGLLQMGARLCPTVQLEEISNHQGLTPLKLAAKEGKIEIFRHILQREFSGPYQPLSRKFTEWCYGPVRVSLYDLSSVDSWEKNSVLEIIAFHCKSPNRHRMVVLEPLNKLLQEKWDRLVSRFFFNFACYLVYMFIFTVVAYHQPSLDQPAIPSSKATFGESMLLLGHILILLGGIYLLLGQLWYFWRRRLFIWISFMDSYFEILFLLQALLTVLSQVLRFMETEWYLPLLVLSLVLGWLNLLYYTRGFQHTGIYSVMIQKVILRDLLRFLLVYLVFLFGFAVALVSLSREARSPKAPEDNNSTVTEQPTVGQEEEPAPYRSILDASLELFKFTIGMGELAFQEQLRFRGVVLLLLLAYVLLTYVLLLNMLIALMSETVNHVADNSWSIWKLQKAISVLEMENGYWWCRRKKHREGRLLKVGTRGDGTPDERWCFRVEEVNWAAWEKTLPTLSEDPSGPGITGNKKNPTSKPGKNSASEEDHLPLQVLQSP
Assay: cryo-EM structure
Conditions: remark: other sources report otherwise

binding: binds
B1: Full-length wild-type rat TRPV2 (transient receptor potential vanilloid 2), Q9WUD2 1-761 (natural protein)
chain: MTSASSPPAFRLETSDGDEEGNAEVNKGKQEPPPMESPFQREDRNSSPQIKVNLNFIKRPPKNTSAPSQQEPDRFDRDRLFSVVSRGVPEELTGLLEYLRWNSKYLTDSAYTEGSTGKTCLMKAVLNLQDGVNACIMPLLQIDKDSGNPKLLVNAQCTDEFYQGHSALHIAIEKRSLQCVKLLVENGADVHLRACGRFFQKHQGTCFYFGELPLSLAACTKQWDVVTYLLENPHQPASLEATDSLGNTVLHALVMIADNSPENSALVIHMYDGLLQMGARLCPTVQLEEISNHQGLTPLKLAAKEGKIEIFRHILQREFSGPYQPLSRKFTEWCYGPVRVSLYDLSSVDSWEKNSVLEIIAFHCKSPNRHRMVVLEPLNKLLQEKWDRLVSRFFFNFACYLVYMFIFTVVAYHQPSLDQPAIPSSKATFGESMLLLGHILILLGGIYLLLGQLWYFWRRRLFIWISFMDSYFEILFLLQALLTVLSQVLRFMETEWYLPLLVLSLVLGWLNLLYYTRGFQHTGIYSVMIQKVILRDLLRFLLVYLVFLFGFAVALVSLSREARSPKAPEDNNSTVTEQPTVGQEEEPAPYRSILDASLELFKFTIGMGELAFQEQLRFRGVVLLLLLAYVLLTYVLLLNMLIALMSETVNHVADNSWSIWKLQKAISVLEMENGYWWCRRKKHREGRLLKVGTRGDGTPDERWCFRVEEVNWAAWEKTLPTLSEDPSGPGITGNKKNPTSKPGKNSASEEDHLPLQVLQSP
